{"source": "patent US10857110B2", "about": "“Antibacterial compounds” (CONSEJO NACIONAL DE INVESTIGACIONES CIENTÍFICAS Y TÉCNICAS …, priority 2016, dated 2020)", "origin": "cited, not measured here", "system": "Burkholderia seminalis (CBC 040)", "settings": "reference (1); cited from earlier work", "note": "At least one compound was matched to its structure with a doubt left.", "data": [{"molecule": "C[C@@H](O)[C@H]1C(=O)N2C(C(=O)O)=C(SCCN=CN)C[C@H]12", "note": "[imipenem]", "values": [{"measurement": "resistance of the strain to commercial antibiotics", "value": "resistant"}]}]}
